Source: article PMC10486786
Results are given in words; binding and its absence hold for the method and conditions named. In cells and extracts the contact can be indirect. Some results given as binding are weak or reduced against the parent protein; the word gives no strength. One block for each molecule: values may come before it.

By UniProt entry, the sequences of proteins in these tests, tags left out. Residues count along the entry.
UniProt Q9NZQ7, residues 19-290: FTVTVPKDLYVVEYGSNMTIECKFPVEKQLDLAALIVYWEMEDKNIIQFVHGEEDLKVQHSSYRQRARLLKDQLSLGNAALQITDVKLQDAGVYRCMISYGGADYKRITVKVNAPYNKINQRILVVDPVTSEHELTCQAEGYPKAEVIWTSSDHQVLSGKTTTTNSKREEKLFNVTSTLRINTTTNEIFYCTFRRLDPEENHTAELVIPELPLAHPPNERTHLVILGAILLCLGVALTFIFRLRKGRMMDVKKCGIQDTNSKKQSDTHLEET
UniProt P51681: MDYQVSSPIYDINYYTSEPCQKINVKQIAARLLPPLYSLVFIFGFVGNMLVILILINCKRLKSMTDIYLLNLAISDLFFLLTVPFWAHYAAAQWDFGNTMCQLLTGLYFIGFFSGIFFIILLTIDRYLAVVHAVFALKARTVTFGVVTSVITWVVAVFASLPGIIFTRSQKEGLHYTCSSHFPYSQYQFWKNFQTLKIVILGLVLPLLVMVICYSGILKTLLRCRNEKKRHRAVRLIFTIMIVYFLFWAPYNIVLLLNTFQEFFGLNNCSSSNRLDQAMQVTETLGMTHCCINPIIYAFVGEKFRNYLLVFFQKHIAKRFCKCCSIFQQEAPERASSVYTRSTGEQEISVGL
UniProt Q9UJU2: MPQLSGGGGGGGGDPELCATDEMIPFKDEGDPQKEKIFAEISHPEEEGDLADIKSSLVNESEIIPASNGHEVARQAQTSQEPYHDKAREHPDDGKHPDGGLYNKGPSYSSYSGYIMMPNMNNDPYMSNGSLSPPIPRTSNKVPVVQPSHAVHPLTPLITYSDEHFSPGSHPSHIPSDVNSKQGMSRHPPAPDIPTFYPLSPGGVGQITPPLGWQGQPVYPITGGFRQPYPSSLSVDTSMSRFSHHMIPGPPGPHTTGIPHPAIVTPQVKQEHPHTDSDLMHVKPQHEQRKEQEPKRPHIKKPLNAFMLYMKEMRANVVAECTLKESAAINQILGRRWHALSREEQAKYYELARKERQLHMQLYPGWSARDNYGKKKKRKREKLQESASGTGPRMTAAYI

Tests used:
[1] = target: T1, vascular endothelial cadherin (VE-cad), endogenous in endothelial cells (human (endogenous in HMVECs and HBMECs)) (UniProt P33151); assay: co-IP; lysates of HMVECs or HBMECs, untreated or treated with recombinant YKL-40 (200 ng/mL), conditioned media, or shRNA; antibody 12 h at 4 °C, protein G Sepharose, immunoblot
T1 sequence: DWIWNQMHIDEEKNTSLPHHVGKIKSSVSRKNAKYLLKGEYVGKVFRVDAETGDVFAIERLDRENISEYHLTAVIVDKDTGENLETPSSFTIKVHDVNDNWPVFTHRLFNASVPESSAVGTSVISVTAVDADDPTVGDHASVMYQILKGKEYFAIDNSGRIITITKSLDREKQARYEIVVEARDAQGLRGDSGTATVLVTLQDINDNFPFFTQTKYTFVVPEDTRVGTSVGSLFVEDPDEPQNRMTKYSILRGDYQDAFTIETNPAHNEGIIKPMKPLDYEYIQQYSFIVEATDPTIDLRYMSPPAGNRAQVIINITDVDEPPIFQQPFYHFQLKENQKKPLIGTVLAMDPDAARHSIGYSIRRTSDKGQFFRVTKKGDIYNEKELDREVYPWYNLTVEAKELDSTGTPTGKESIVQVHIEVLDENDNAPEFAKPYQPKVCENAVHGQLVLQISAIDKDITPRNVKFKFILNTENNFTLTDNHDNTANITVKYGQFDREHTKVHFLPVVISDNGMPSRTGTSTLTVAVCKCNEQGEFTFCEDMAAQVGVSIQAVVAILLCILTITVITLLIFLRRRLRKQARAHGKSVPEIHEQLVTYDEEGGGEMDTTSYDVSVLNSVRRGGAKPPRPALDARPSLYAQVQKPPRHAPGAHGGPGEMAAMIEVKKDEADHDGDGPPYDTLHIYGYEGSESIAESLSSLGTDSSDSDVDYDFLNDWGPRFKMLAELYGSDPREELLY

[2] = target: β-catenin, endogenous in endothelial cells (human (endogenous in HMVECs and HBMECs)) (UniProt P35222); assay: as above
[3] = target: T1, vascular endothelial cadherin (VE-cad), endogenous in endothelial cells (human (endogenous in HMVECs and HBMECs)); assay: condition: only cells treated with YKL-40 (200 ng/mL); co-IP; lysates of HMVECs or HBMECs treated with recombinant YKL-40 (200 ng/mL); antibody 12 h at 4 °C, protein G Sepharose, immunoblot
[4] = target: T2, syndecan-1, endogenous in HMVECs (human (endogenous in HMVECs)) (UniProt P18827); assay: co-IP; lysates of HMVECs or HBMECs, untreated or treated with recombinant YKL-40 (200 ng/mL), conditioned media, or shRNA; antibody 12 h at 4 °C, protein G Sepharose, immunoblot
T2 sequence: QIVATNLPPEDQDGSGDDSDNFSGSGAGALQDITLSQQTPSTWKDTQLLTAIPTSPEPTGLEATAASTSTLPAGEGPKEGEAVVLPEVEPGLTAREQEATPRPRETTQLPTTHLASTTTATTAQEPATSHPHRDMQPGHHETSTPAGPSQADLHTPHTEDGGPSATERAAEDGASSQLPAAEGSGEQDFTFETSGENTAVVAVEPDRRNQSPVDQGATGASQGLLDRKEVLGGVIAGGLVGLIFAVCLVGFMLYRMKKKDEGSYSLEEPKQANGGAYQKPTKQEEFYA

[5] = target: T3, β-catenin, endogenous in endothelial cells (human (endogenous in HMVECs and HBMECs)), P35222; assay: as above; settings: remark: other sources report otherwise
T3 chain: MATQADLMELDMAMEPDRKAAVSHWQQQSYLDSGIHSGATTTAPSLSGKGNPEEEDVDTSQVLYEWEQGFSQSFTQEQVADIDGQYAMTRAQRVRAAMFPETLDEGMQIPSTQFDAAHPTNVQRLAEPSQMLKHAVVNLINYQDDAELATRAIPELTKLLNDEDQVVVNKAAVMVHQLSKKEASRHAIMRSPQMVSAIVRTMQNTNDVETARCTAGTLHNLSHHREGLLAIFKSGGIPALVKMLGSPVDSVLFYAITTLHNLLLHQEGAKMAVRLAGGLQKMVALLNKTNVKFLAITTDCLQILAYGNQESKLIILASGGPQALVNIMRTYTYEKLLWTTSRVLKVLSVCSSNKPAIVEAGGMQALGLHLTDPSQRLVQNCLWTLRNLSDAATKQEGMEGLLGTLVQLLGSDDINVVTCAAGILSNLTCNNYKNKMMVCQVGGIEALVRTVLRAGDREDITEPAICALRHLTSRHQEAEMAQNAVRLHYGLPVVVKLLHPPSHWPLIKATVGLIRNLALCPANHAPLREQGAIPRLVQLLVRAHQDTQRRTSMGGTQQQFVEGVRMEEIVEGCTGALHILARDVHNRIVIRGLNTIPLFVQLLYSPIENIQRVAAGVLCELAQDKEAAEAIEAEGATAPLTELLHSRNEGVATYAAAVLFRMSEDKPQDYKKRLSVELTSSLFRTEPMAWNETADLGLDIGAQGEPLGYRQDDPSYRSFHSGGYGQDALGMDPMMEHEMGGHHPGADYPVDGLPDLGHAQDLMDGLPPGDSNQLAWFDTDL

[6] = target: programmed death ligand 1 (PD-L1), endogenous in endothelial cells (human (endogenous in HMVECs and HBMECs)) (UniProt Q9NZQ7); assay: as above

- binding [1]: binds
Molecule: CCR5, endogenous in HMVECs (from UniProt P51681 1-352) (receptor)

- binding [2]: binds
Molecule: LEF1, endogenous in endothelial cells (from UniProt Q9UJU2 1-399)

- binding [1]: binds
B2: syndecan-1, endogenous in HMVECs (protein, UniProt P18827 23-310)
chain: QIVATNLPPEDQDGSGDDSDNFSGSGAGALQDITLSQQTPSTWKDTQLLTAIPTSPEPTGLEATAASTSTLPAGEGPKEGEAVVLPEVEPGLTAREQEATPRPRETTQLPTTHLASTTTATTAQEPATSHPHRDMQPGHHETSTPAGPSQADLHTPHTEDGGPSATERAAEDGASSQLPAAEGSGEQDFTFETSGENTAVVAVEPDRRNQSPVDQGATGASQGLLDRKEVLGGVIAGGLVGLIFAVCLVGFMLYRMKKKDEGSYSLEEPKQANGGAYQKPTKQEEFYA
- binding [6]: binds

The remaining lines, values behind:

Molecule: programmed death ligand 1 (PD-L1), endogenous in endothelial cells (from UniProt Q9NZQ7 19-290)
- binding [3]: no binding
- binding [1]: binds
- binding [4]: binds

B1: vascular endothelial cadherin (VE-cad), endogenous in endothelial cells, P33151 48-784 (protein)
chain: DWIWNQMHIDEEKNTSLPHHVGKIKSSVSRKNAKYLLKGEYVGKVFRVDAETGDVFAIERLDRENISEYHLTAVIVDKDTGENLETPSSFTIKVHDVNDNWPVFTHRLFNASVPESSAVGTSVISVTAVDADDPTVGDHASVMYQILKGKEYFAIDNSGRIITITKSLDREKQARYEIVVEARDAQGLRGDSGTATVLVTLQDINDNFPFFTQTKYTFVVPEDTRVGTSVGSLFVEDPDEPQNRMTKYSILRGDYQDAFTIETNPAHNEGIIKPMKPLDYEYIQQYSFIVEATDPTIDLRYMSPPAGNRAQVIINITDVDEPPIFQQPFYHFQLKENQKKPLIGTVLAMDPDAARHSIGYSIRRTSDKGQFFRVTKKGDIYNEKELDREVYPWYNLTVEAKELDSTGTPTGKESIVQVHIEVLDENDNAPEFAKPYQPKVCENAVHGQLVLQISAIDKDITPRNVKFKFILNTENNFTLTDNHDNTANITVKYGQFDREHTKVHFLPVVISDNGMPSRTGTSTLTVAVCKCNEQGEFTFCEDMAAQVGVSIQAVVAILLCILTITVITLLIFLRRRLRKQARAHGKSVPEIHEQLVTYDEEGGGEMDTTSYDVSVLNSVRRGGAKPPRPALDARPSLYAQVQKPPRHAPGAHGGPGEMAAMIEVKKDEADHDGDGPPYDTLHIYGYEGSESIAESLSSLGTDSSDSDVDYDFLNDWGPRFKMLAELYGSDPREELLY
- binding [5]: binds
